# Test system: vesicular structures in dSH-SY5Y cells
# Assay: Immunogold TEM of cells exposed to dGAE-488 (vesicle diameter)
# Format: cell-based, human
substance,measurement,setting,value
dGAE-488: dGAE covalently labelled with Alexa Fluor 488,vesicle diameter,"10 μM soluble dGAE-488, 24 h, buffer 303.7±20.0 nm",448.4±22.5 nm
same,vesicle diameter,"figure legend: 1 μM soluble dGAE-488, 24 h, buffer 303.7±20.03",478.4±22.48

# Source: US20230266303A1, “SYSTEM” (GTINVENT LIMITED, priority 2020, published 2023)
